Source: PMC7847308, “Nanoscopic anatomy of dynamic multi-protein complexes at membranes resolved by graphene-induced energy transfer” (eLife, 2021)
No constants are given. Whether binding was seen depends on the method and setting. Some binding calls cover weakened binding; strength is not graded here. Tags and fused reporters may be left off the sequences shown.

T1: Vps41-TAP (S. cerevisiae), P38959
T1 chain: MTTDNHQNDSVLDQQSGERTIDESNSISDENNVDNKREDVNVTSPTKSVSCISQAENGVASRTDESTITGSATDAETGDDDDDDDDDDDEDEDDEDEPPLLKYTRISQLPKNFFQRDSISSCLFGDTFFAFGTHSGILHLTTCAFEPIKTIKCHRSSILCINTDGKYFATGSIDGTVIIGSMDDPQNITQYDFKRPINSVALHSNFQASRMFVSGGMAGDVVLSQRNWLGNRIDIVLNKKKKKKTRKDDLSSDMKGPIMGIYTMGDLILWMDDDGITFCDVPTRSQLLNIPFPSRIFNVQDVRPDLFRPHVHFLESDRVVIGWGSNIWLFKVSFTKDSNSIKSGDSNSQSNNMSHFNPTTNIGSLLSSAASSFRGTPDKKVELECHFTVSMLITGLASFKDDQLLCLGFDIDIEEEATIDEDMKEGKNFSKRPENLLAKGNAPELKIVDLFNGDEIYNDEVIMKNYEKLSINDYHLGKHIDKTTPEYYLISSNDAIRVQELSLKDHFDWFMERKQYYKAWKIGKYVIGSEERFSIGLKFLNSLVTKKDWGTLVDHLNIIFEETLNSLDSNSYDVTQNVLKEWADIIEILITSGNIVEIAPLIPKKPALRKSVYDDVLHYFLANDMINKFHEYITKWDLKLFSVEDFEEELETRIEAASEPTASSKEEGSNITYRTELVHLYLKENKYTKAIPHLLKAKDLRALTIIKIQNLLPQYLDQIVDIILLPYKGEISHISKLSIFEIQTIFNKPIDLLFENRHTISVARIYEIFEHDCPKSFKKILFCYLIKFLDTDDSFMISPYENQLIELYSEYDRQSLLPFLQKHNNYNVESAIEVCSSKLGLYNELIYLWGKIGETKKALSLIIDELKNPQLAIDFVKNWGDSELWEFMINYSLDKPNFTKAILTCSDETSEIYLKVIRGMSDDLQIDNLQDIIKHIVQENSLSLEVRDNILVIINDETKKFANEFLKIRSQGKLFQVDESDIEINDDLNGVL

B1: Vps11-yEGFP, P12868 1-1029 (protein)
chain: MSLSSWRQFQLFENIPIRDPNFGGDSLLYSDPTLCAATIVDPQTLIIAVNSNIIKVVKLNQSQVIHEFQSFPHDFQITFLKVINGEFLVALAESIGKPSLIRVYKLEKLPNREQLYHSQVELKNGNNTYPISVVSISNDLSCIVVGFINGKIILIRGDISRDRGSQQRIIYEDPSKEPITALFLNNDATACFAATTSRILLFNTTGRNRGRPSLVLNSKNGLDLNCGSFNPATNEFICCLSNFIEFFSSSGKKHQFAFDLSLRKRIFCVDKDHILIVTEETGVPTTSISVNELSPTIINRIFIIDAKNKIISLNFVVSSAIIDIFSTSQSGKNITYLLTSEGVMHRITPKSLENQINIIIQKELYPFALQLAKQHSLSPLDVQEIHKKYGDYLFKKGLRKEATDQYIQCLDVVETSEIISKFGVKEVPDPESMRNLADYLWSLIKNSISQRDHVTLLLIVLIKLKDVEGIDTFIQHFDRKGIWNEGVVMDDMDDVTFFYSDNDFFDLDLILELMKESDFKRLSYRLAKKYSKDSLIIVDILLNLLHNPVKAIKYIKSLPIDETLRCLVTYSKKLLEESPNETNALLIEVFTGKFKPSTFEVDLDRRDTTGDFSENIRTVFYSYKTFFNYMNSNGTSDAMSESSEASHEHEEPTYHPPKPSIVFSSFVTKPFEFVVFLEACLACYQQYEGFDEDRQVILTTLYDLYLNLAQNDVPERIDDWRSRATGVLRESNKLVYSAASNNTSKRVDNSIMLLISHMDQSSASAKDKTKIDIASFANDNPEMDLLSTFRAMTLNEEPSTCLKFLEKYGTEEPKLLQVALSYFVSNKLIFKEMGGNEVLKEKVLRPIIEGERMPLLDIIKALSRTNVAHFGLIQDIIIDHVKTEDTEIKRNEKLIESYDKELKEKNKKLKNTINSDQPLHVPLKNQTCFMCRLTLDIPVVFFKCGHIYHQHCLNEEEDTLESERKLFKCPKCLVDLETSNKLFEAQHEVVEKNDLLNFALNSEEGSRDRFKVITEFLGRGAISYSDITI
B2: Vps33-yEGFP, P20795 1-691 (protein)
chain: MNRFWNTKKFSLTNADGLCATLNEISQNDEVLVVQPSVLPVLNSLLTFQDLTQSTPVRKITLLDDQLSDDLPSALGSVPQMDLIFLIDVRTSLRLPPQLLDAAQKHNLSSLHIIYCRWKPSFQNTLEDTEQWQKDGFDLNSKKTHFPNVIESQLKELSNEYTLYPWDLLPFPQIDENVLLTHSLYNMENVNMYYPNLRSLQSATESILVDDMVNSLQSLIFETNSIITNVVSIGNLSKRCSHLLKKRIDEHQTENDLFIKGTLYGERTNCGLEMDLIILERNTDPITPLLTQLTYAGILDDLYEFNSGIKIKEKDMNFNYKEDKIWNDLKFLNFGSIGPQLNKLAKELQTQYDTRHKAESVHEIKEFVDSLGSLQQRQAFLKNHTTLSSDVLKVVETEEYGSFNKILELELEILMGNTLNNDIEDIILELQYQYEVDQKKILRLICLLSLCKNSLREKDYEYLRTFMIDSWGIEKCFQLESLAELGFFTSKTGKTDLHITTSKSTRLQKEYRYISQWFNTVPIEDEHAADKITNENDDFSEATFAYSGVVPLTMRLVQMLYDRSILFHNYSSQQPFILSREPRVSQTEDLIEQLYGDSHAIEESIWVPGTITKKINASIKSNNRRSIDGSNGTFHAAEDIALVVFLGGVTMGEIAIMKHLQKILGKKGINKRFIIIADGLINGTRIMNSIS
B3: Vps39, Q07468 1-1049 (protein)
chain: MLRAQKLHSLKSSDITAILPTEQSQKLVLAKKNGDVEVYSRDGNTLKLFQVYPDLLQNAKNDPLPPVIENFYFANELSTIFAQCKETLILLSTTNLHEYDRIIDRRGINHCWLFERSHKNKEEKNTYLIYSTINTAKMRVLIWEGRTYKNMMEASLSYRKETIRSIYPGETGITLATDLGIYHWPYNKPSLIRIEKTVKNKFPKDMISALTELKEQAEKVIEKKPKKNSHFDAQSFSSMDRMSRKSSMSSLWYRTIRNERGNKIRYTFELDGNDATPMIIDGATKKIFKVELMHNNEEPFLIATDHATFSESNSEFDHMQYLSSNLLMLYNSSTIKFVDYENGFTFLQQKIPEGIKWVKNLSGTYFLVWTSNDEVQLFSYHVDDGSEDDDQESICGDINDPDFYQLWRKVLFYKFFIDSPHSKELCVSDNPEESLDICAMKLRDLTVMWCLRIFDKFQNYMVQLERSRNSRMIRSKCEEMIIKSIFDLFIKFWAPPQLVILKVFPSAISSLVLEITGQEHHCLLKEAEEVKETYDIPPHLLNRWCLPYLTDTRRHLQNLLSKENDDESRITWCYRDREIKQSFDFFLISNHDDVDLNTMLTLIDTVLFKCYLYYNPPMVGPFIRVENHCDSHVIVTELKIRHMFKDLIDFYYKRGNHEEALKFLTDLVDELENDNTDQKQRQKIDHGVKILVIYYLKKLSNPQLDVIFTYTDWLLNRHNDSIKEILSSIFFYDSQACSSRDHLKVYGYIKKFDKLLAIQYLEFAISTFRLEGNKLHTVLIKLYLENLDIPSTRIKLKSLLETTSVYEPRTILKLLNDAIESGSDQLPTNQLNFVKYLKIFPLSKLENHKEAVHILLDEIDDYKAATSYCNDVYQSDSTKGEELLLYLYSKLVSIYDSNRNSKLILNFLQDHGSKLNSAEIYKNLPQDISLYDIGRVVSQLLKKHTSKMDETRLEKALLQVELVATTYKLNERMSSYGVLSDSHKCPICKKVISNFGTDSISWFTREGRNIITHYNCGKVLQERFNAKNEKSSRIKQKTLGEVINELNNK
B4: Vps11, P12868 1-1029 (protein)
chain: MSLSSWRQFQLFENIPIRDPNFGGDSLLYSDPTLCAATIVDPQTLIIAVNSNIIKVVKLNQSQVIHEFQSFPHDFQITFLKVINGEFLVALAESIGKPSLIRVYKLEKLPNREQLYHSQVELKNGNNTYPISVVSISNDLSCIVVGFINGKIILIRGDISRDRGSQQRIIYEDPSKEPITALFLNNDATACFAATTSRILLFNTTGRNRGRPSLVLNSKNGLDLNCGSFNPATNEFICCLSNFIEFFSSSGKKHQFAFDLSLRKRIFCVDKDHILIVTEETGVPTTSISVNELSPTIINRIFIIDAKNKIISLNFVVSSAIIDIFSTSQSGKNITYLLTSEGVMHRITPKSLENQINIIIQKELYPFALQLAKQHSLSPLDVQEIHKKYGDYLFKKGLRKEATDQYIQCLDVVETSEIISKFGVKEVPDPESMRNLADYLWSLIKNSISQRDHVTLLLIVLIKLKDVEGIDTFIQHFDRKGIWNEGVVMDDMDDVTFFYSDNDFFDLDLILELMKESDFKRLSYRLAKKYSKDSLIIVDILLNLLHNPVKAIKYIKSLPIDETLRCLVTYSKKLLEESPNETNALLIEVFTGKFKPSTFEVDLDRRDTTGDFSENIRTVFYSYKTFFNYMNSNGTSDAMSESSEASHEHEEPTYHPPKPSIVFSSFVTKPFEFVVFLEACLACYQQYEGFDEDRQVILTTLYDLYLNLAQNDVPERIDDWRSRATGVLRESNKLVYSAASNNTSKRVDNSIMLLISHMDQSSASAKDKTKIDIASFANDNPEMDLLSTFRAMTLNEEPSTCLKFLEKYGTEEPKLLQVALSYFVSNKLIFKEMGGNEVLKEKVLRPIIEGERMPLLDIIKALSRTNVAHFGLIQDIIIDHVKTEDTEIKRNEKLIESYDKELKEKNKKLKNTINSDQPLHVPLKNQTCFMCRLTLDIPVVFFKCGHIYHQHCLNEEEDTLESERKLFKCPKCLVDLETSNKLFEAQHEVVEKNDLLNFALNSEEGSRDRFKVITEFLGRGAISYSDITI
B5: Vps33, P20795 1-691 (protein)
chain: MNRFWNTKKFSLTNADGLCATLNEISQNDEVLVVQPSVLPVLNSLLTFQDLTQSTPVRKITLLDDQLSDDLPSALGSVPQMDLIFLIDVRTSLRLPPQLLDAAQKHNLSSLHIIYCRWKPSFQNTLEDTEQWQKDGFDLNSKKTHFPNVIESQLKELSNEYTLYPWDLLPFPQIDENVLLTHSLYNMENVNMYYPNLRSLQSATESILVDDMVNSLQSLIFETNSIITNVVSIGNLSKRCSHLLKKRIDEHQTENDLFIKGTLYGERTNCGLEMDLIILERNTDPITPLLTQLTYAGILDDLYEFNSGIKIKEKDMNFNYKEDKIWNDLKFLNFGSIGPQLNKLAKELQTQYDTRHKAESVHEIKEFVDSLGSLQQRQAFLKNHTTLSSDVLKVVETEEYGSFNKILELELEILMGNTLNNDIEDIILELQYQYEVDQKKILRLICLLSLCKNSLREKDYEYLRTFMIDSWGIEKCFQLESLAELGFFTSKTGKTDLHITTSKSTRLQKEYRYISQWFNTVPIEDEHAADKITNENDDFSEATFAYSGVVPLTMRLVQMLYDRSILFHNYSSQQPFILSREPRVSQTEDLIEQLYGDSHAIEESIWVPGTITKKINASIKSNNRRSIDGSNGTFHAAEDIALVVFLGGVTMGEIAIMKHLQKILGKKGINKRFIIIADGLINGTRIMNSIS

Target: T1, Vps41-TAP (S. cerevisiae), P38959
Experiment: tandem affinity purification with SDS-PAGE and Coomassie staining; yeast lysate on IgG Sepharose by the TAP-tagged subunit, 2 h 4 C, washed, eluted by TEV cleavage; 300 mM NaCl (HOPS) or 150 mM NaCl (Mon1-Ccz1)
Conditions: remark: other sources report otherwise
In the case of B1, the binding is reported as “binds”.
For B2, the binding was “binds”.
With B3 the binding was “binds”.
For B4, the binding was “binds”.
For B5, the binding was “binds”.
